Paper doi:10.1101/2025.03.10.641328
Results are given in words; binding and its absence hold for the method and conditions named. Binding seen in cells or lysates may run through a third protein. Here binding means that the protein was enriched with, or labelled near, the bait; the list need not be complete. No binding means not detected with the bait. Where a sequence is shown, tags or fusion partners need not be part of it.

Protein sequences, listed by entry. Tags and fused reporters are not part of them.
UniProt P61081: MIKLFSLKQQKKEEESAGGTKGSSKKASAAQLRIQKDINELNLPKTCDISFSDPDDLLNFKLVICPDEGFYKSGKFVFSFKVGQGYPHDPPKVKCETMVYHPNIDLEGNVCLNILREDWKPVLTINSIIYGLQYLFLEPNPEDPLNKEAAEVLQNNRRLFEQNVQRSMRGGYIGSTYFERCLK
UniProt O95816: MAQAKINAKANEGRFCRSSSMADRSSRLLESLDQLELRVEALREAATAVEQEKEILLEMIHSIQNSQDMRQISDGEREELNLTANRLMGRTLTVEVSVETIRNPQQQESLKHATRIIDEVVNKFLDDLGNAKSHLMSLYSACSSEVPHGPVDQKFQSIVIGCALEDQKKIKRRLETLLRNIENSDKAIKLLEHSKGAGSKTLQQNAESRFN
UniProt Q9UNE7: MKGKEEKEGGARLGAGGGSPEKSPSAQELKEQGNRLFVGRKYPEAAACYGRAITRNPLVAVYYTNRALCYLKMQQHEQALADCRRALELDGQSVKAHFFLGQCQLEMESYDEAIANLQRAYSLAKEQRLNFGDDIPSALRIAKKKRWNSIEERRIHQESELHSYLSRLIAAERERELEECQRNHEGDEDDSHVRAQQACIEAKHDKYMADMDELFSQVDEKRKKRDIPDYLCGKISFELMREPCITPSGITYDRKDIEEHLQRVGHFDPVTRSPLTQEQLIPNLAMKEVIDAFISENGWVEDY
UniProt Q9UNN5: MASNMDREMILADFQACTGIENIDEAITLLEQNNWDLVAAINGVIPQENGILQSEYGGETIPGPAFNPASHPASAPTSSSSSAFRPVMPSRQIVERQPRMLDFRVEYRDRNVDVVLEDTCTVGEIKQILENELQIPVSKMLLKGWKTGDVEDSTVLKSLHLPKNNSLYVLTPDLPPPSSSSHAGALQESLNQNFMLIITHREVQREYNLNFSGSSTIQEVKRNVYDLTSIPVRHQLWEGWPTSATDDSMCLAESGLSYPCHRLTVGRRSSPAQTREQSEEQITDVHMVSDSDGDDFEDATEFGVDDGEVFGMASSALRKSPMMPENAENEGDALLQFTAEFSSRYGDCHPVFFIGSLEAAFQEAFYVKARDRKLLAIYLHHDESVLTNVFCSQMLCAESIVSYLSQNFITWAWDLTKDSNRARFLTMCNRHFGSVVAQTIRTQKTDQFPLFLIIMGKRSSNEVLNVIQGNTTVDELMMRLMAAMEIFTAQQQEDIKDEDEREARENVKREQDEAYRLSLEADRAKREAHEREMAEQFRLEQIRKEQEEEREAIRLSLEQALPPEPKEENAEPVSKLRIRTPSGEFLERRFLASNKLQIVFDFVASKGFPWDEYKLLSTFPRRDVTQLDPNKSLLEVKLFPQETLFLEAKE

T1: GFP-tagged gigaxonin Kelch 3 deletion mutant (human) (UniProt Q9H2C0)
T1 sequence: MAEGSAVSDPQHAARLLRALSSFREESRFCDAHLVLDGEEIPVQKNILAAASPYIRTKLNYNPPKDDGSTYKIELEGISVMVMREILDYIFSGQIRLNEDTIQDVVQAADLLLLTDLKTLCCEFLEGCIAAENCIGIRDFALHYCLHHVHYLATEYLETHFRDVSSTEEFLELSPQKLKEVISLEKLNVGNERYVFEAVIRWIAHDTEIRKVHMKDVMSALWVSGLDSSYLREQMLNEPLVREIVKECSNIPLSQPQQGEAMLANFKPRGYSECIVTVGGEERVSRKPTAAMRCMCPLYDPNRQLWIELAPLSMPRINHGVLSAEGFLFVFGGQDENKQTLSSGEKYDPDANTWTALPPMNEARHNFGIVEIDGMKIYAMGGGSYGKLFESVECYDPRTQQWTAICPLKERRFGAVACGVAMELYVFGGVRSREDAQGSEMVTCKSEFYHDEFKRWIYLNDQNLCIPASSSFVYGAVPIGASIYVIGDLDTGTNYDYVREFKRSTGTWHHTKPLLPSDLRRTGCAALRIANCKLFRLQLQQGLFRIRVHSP

B1: UBAC2 (protein, UniProt Q8NBM4 36-344)
chain: HCQKLFVYDLHAVKNDFQIWRLICGRIICLDLKDTFCSSLLIYNFRIFERRYGSRKFASFLLGSWVLSALFDFLLIEAMQYFFGITAASNLPSGFLAPVFALFVPFYCSIPRVQVAQILGPLSITNKTLIYILGLQLFTSGSYIWIVAISGLMSGLCYDSKMFQVHQVLCIPSWMAKFFSWTLEPIFSSSEPTSEARIGMGATLDIQRQQRMELLDRQLMFSQFAQGRRQRQQQGGMINWNRLFPPLRQRQNVNYQGGRQSEPAAPPLEVSEEQVARLMEMGFSRGDALEALRASNNDLNVATNFLLQH
B2: NME3 (protein, UniProt Q13232 1-169)
chain: MICLVLTIFANLFPAACTGAHERTFLAVKPDGVQRRLVGEIVRRFERKGFKLVALKLVQASEELLREHYAELRERPFYGRLVKYMASGPVVAMVWQGLDVVRTSRALIGATNPADAPPGTIRGDFCIEVGKNLIHGSDSVESARREIALWFRADELLCWEDSAGHWLYE
B3: UBE2J1 (protein, UniProt Q9Y385 1-318)
chain: METRYNLKSPAVKRLMKEAAELKDPTDHYHAQPLEDNLFEWHFTVRGPPDSDFDGGVYHGRIVLPPEYPMKPPSIILLTANGRFEVGKKICLSISGHHPETWQPSWSIRTALLAIIGFMPTKGEGAIGSLDYTPEERRALAKKSQDFCCEGCGSAMKDVLLPLKSGSDSSQADQEAKELARQISFKAEVNSSGKTISESDLNHSFSLTDLQDDIPTTFQGATASTSYGLQNSSAASFHQPTQPVAKNTSMSPRQRRAQQQSQRRLSTSPDVIQGHQPRDNHTDHGGSAVLIVILTLALAALIFRRIYLANEYIFDFEL
B4: TRIM38 (protein, UniProt O00635 1-465)
chain: MASTTSTKKMMEEATCSICLSLMTNPVSINCGHSYCHLCITDFFKNPSQKQLRQETFCCPQCRAPFHMDSLRPNKQLGSLIEALKETDQEMSCEEHGEQFHLFCEDEGQLICWRCERAPQHKGHTTALVEDVCQGYKEKLQKAVTKLKQLEDRCTEQKLSTAMRITKWKEKVQIQRQKIRSDFKNLQCFLHEEEKSYLWRLEKEEQQTLSRLRDYEAGLGLKSNELKSHILELEEKCQGSAQKLLQNVNDTLSRSWAVKLETSEAVSLELHTMCNVSKLYFDVKKMLRSHQVSVTLDPDTAHHELILSEDRRQVTRGYTQENQDTSSRRFTAFPCVLGCEGFTSGRRYFEVDVGEGTGWDLGVCMENVQRGTGMKQEPQSGFWTLRLCKKKGYVALTSPPTSLHLHEQPLLVGIFLDYEAGVVSFYNGNTGCHIFTFPKASFSDTLRPYFQVYQYSPLFLPPPGD
B5: VCPIP1 (protein, UniProt Q96JH7 1-1222)
chain: MSQPPPPPPPLPPPPPPPEAPQTPSSLASAAASGGLLKRRDRRILSGSCPDPKCQARLFFPASGSVSIECTECGQRHEQQQLLGVEEVTDPDVVLHNLLRNALLGVTGAPKKNTELVKVMGLSNYHCKLLSPILARYGMDKQTGRAKLLRDMNQGELFDCALLGDRAFLIEPEHVNTVGYGKDRSGSLLYLHDTLEDIKRANKSQECLIPVHVDGDGHCLVHAVSRALVGRELFWHALRENLKQHFQQHLARYQALFHDFIDAAEWEDIINECDPLFVPPEGVPLGLRNIHIFGLANVLHRPIILLDSLSGMRSSGDYSATFLPGLIPAEKCTGKDGHLNKPICIAWSSSGRNHYIPLVGIKGAALPKLPMNLLPKAWGVPQDLIKKYIKLEEDGGCVIGGDRSLQDKYLLRLVAAMEEVFMDKHGIHPSLVADVHQYFYRRTGVIGVQPEEVTAAAKKAVMDNRLHKCLLCGALSELHVPPEWLAPGGKLYNLAKSTHGQLRTDKNYSFPLNNLVCSYDSVKDVLVPDYGMSNLTACNWCHGTSVRKVRGDGSIVYLDGDRTNSRSTGGKCGCGFKHFWDGKEYDNLPEAFPITLEWGGRVVRETVYWFQYESDSSLNSNVYDVAMKLVTKHFPGEFGSEILVQKVVHTILHQTAKKNPDDYTPVNIDGAHAQRVGDVQGQESESQLPTKIILTGQKTKTLHKEELNMSKTERTIQQNITEQASVMQKRKTEKLKQEQKGQPRTVSPSTIRDGPSSAPATPTKAPYSPTTSKEKKIRITTNDGRQSMVTLKSSTTFFELQESIAREFNIPPYLQCIRYGFPPKELMPPQAGMEKEPVPLQHGDRITIEILKSKAEGGQSAAAHSAHTVKQEDIAVTGKLSSKELQEQAEKEMYSLCLLATLMGEDVWSYAKGLPHMFQQGGVFYSIMKKTMGMADGKHCTFPHLPGKTFVYNASEDRLELCVDAAGHFPIGPDVEDLVKEAVSQVRAEATTRSRESSPSHGLLKLGSGGVVKKKSEQLHNVTAFQGKGHSLGTASGNPHLDPRARETSVVRKHNTGTDFSNSSTKTEPSVFTASSSNSELIRIAPGVVTMRDGRQLDPDLVEAQRKKLQEMVSSIQASMDRHLRDQSTEQSPSDLPQRKTEVVSSSAKSGSLQTGLPESFPLTGGTENLNTETTDGCVADALGAAFATRSKAQRGNSVEELEEMDSQDAEMTNTTEPMDHS
B6: NudC domain-containing protein 3 (protein, UniProt Q8IVD9 1-361)
chain: METGAAELYDQALLGILQHVGNVQDFLRVLFGFLYRKTDFYRLLRHPSDRMGFPPGAAQALVLQVFKTFDHMARQDDEKRRQELEEKIRRKEEEEAKTVSAAAAEKEPVPVPVQEIEIDSTTELDGHQEVEKVQPPGPVKEMAHGSQEAEAPGAVAGAAEVPREPPILPRIQEQFQKNPDSYNGAVRENYTWSQDYTDLEVRVPVPKHVVKGKQVSVALSSSSIRVAMLEENGERVLMEGKLTHKINTESSLWSLEPGKCVLVNLSKVGEYWWNAILEGEEPIDIDKINKERSMATVDEEEQAVLDRLTFDYHQKLQGKPQSHELKVHEMLKKGWDAEGSPFRGQRFDPAMFNISPGAVQF

What follows are molecules tested against T1, GFP-tagged gigaxonin Kelch 3 deletion mutant (human) (assay: affinity purification with mass spectrometry; GFP-tagged gigaxonin captured on TurboGFP-Trap magnetic agarose beads from Triton X-100 soluble lysate of transfected cells, overnight at 4°C; on-bead tryptic digestion, LC-MS/MS, MaxQuant and Perseus).
In the case of UBE2M (from UniProt P61081 1-183), the binding is reported as “binds”. With BAG2 (from UniProt O95816 1-211) the binding was “binds”. In the case of STUB1 (from UniProt Q9UNE7 1-303), the binding is reported as “binds”. In the case of FAF1 (from UniProt Q9UNN5 1-650), the binding is reported as “binds”. B1 was tested, and the binding was “binds”. In the case of B2, the binding is reported as “binds”. B3 was tested, and the binding was “binds”. For B4, the binding was “binds”. B5 was tested, and the binding was “binds”. B6 was tested, and the binding was “no binding”.
